Data taken from PMC9654039, “FUS Microphase Separation: Regulation by Nucleic Acid Polymers and DNA Repair Proteins”.
Results are given in words; binding and its absence hold for the method and conditions named. Some binding calls cover weakened binding; strength is not graded here.

Amino acid sequences for entries named in this document (tags omitted).
UniProt P18887: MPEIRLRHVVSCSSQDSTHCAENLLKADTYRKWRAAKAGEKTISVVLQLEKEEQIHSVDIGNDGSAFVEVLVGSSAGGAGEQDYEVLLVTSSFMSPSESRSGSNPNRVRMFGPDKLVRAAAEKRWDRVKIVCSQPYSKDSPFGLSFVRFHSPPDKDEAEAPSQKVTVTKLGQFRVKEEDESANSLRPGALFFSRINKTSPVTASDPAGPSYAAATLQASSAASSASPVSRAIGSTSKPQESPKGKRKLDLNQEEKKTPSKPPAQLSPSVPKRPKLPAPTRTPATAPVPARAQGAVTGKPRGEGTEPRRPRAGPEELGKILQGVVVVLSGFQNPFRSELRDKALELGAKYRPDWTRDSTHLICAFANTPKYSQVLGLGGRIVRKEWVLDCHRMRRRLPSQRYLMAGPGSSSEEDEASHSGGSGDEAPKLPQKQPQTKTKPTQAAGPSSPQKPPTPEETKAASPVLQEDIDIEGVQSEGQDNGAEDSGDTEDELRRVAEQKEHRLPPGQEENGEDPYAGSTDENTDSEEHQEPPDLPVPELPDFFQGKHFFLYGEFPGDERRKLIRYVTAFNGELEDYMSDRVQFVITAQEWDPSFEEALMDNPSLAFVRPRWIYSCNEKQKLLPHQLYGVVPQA

Target: X-ray repair cross-complementing protein 1 (XRCC1) (human) (UniProt P18887)
Assay: dynamic light scattering; XRCC1 alone, 2.9 µM, in DLS buffer (25 mM HEPES-NaOH pH 7.5, 200 mM NaCl, 300 mM urea, 1 mM DTT); 25 °C; no PAR; both purified

- binding: binds
Substance: X-ray repair cross-complementing protein 1 (XRCC1) (from UniProt P18887 1-633) (other; other documents disagree on this pair)
